Data taken from patent US20050025822A1, “Method of pulmonary administration of an agent” (priority 2003, published 2005).

Tested on: NR8383 rat alveolar macrophages
Assay: In vitro incubation of liposomes with rat alveolar macrophages (ciprofloxacin uptake)
Assay type: cell-based
Conditions: 0.5 mg/mL drug, 4 hours, 37° C.
Experimental: One of the key components in an inflammatory response in the lung is the activation of macrophages, where resident macrophages are a first line of cellular defense. An in vitro study was conducted to evaluate the extent of macrophage uptake of liposome formulation nos. […] As described in Example 6, rat alveolar macrophages were grown in culture. Cells were placed in a test tube along with liposome formulation no. […] 1 (diamonds), 2 (x symbols), 3 (triangles), and 4 (squares) is graphed.
NR8383 cell lines (ATCC) were established to provide a homogeneous and continuous source of responsive alveolar macrophages to study macrophage-related activity. NR8383 was obtained from ATCC as a continuous culture of rat alveolar macrophages. The original culture was obtained from bronchoalveolar lavages from female Sprague-Dawley rats. […] The continuous cell line was subcultured in Ham's F12 media containing 15% FBS (Gibco), 2 mM L-Glutamine (Gibco) and 100 U/100 μg Penicillin/streptomycin (Sigma).
NR8383 cells growing in log-phase were prepared in Ham's F12 media in the absence of serum at a concentration of 1×10^6 cells/mL. […] The lipid concentration ranged between 0.15-0.25 mg/mL total lipid. Cells were incubated for 4 hours at 37° C. and 5% CO2 with each tube lying on the side to maximize surface area. […]

O=C(O)c1cn(C2CC2)c2cc(N3CCNCC3)c(F)cc2c1=O [free ciprofloxacin, ciprofloxacin]
ciprofloxacin uptake into macrophages (in words): higher than for any of the liposomal formulations
